For experiment [1], the target named is LMO4 first LIM domain (two-hybrid construct) (mouse). Kind of experiment: two-hybrid; S. cerevisiae AH109, co-transformed; spotted on low-stringency interaction plates (-L/-W/-H) and growth control plates.
Experiment [2] deals with LMO4 second LIM domain (two-hybrid construct) (mouse). The description is as above.

These are yes or no findings as the source states them, for the method shown.

B1: Deformed epidermal autoregulatory factor-1 (DEAF1), residues 45-566 (domain or fragment, UniProt Q9Z1T5-1 45-566)
chain: DEDSEEDADSEAERETRRVTAVAVMAAESGHMDMGTEALPSPDEAAAAAAAFAEVTTVTVANVGSSADNVFTTSVANAASISGHVLSGRTALQIGDSLNTEKATLIVVHTDGSIVETTGLKGPAAPLTPGPQSPPTPLAPGQEKGGTKYNWDPSVYDSELPVRCRNISGTLYKSRLGSGGRGRCIKQGENWYSPTEFEAMAGRASSKDWKRSIRYAGRPLQCLIQDGILNPHAASCTCAACCDDMTLSGPVRLFVPYKRRKKENELPTTPVKKDSPKNITLLPATAATTFTVTPSGQITTSGALTFDRASTVEATAVISESPAQGDVFAGATVQEAGVQPPCRVGHPEPHYPGYQDSCQIAPFPEAALPTSHPKIVLTSLPALAVPPSTPTKAVSPTVVSGLEMSEHRSWLYLEEMVNSLLNTAQQLKTLFEQAKQASSCREAAVTQARMQVDTERKEQSCVNCGREAMSECTGCHKVNYCSTFCQRKDWKDHQHVCGQSASVTVQADDVHVEESVIEKVAV
Consider B1, for which the binding entry in experiment [1] and in experiment [2] was “no binding” each time.

These data come from PMC4195752, “The Structure of an LIM-Only Protein 4 (LMO4) and Deformed Epidermal Autoregulatory Factor-1 (DEAF1) Complex Reveals a Common Mode of Binding to LMO4” (PLoS ONE, 2014).
